No constants are given. Whether binding was seen depends on the method and setting. Some binding calls cover weakened binding; strength is not graded here.

This assay concerns the target Gmet_0936 protein (putative HNH endonuclease) from Geobacter metallireducens GS-15, with C-terminal LEH6 (Geobacter metallireducens GS-15) (UniProt Q39X46). The assay is described as follows: crystal structure; SAD, selenomethionyl protein; crystals from 0.2 M magnesium sulfate, 20% PEG 8000, 100 mM Tris-HCl pH 8.5, 4°C; 3 molecules in the asymmetric unit; both purified.

B1: Gmet_0936 protein (putative HNH endonuclease) from Geobacter metallireducens GS-15, with C-terminal LEH6 (enzyme, UniProt Q39X46 1-104, looked up)
chain: MNYFIVEVSEQEVKREKEKARELRRSQWWKNRIARGICHYCGEIFPPEELTMDHLVPVVRGGKSTRGNVVPACKECNNRKKYLLPVEWEEYLDSLESEPSDGEG
modifications: selenomethionine in place of methionine (selenomethionine-labeled)
notes: Gmet_0936, putative HNH endonuclease of Geobacter metallireducens GS-15; full-length gene in a pET21 derivative (pGmR87-21.1); molecular mass with tag 13.3 kDa; The SEC with static light scattering used a thawed aliquot of the crystallization stock (the same protein as in the crystal); also called Gme HNHE (H6); Gmet_0936 (H6); source: E. coli BL21 (DE3) pMGK, selenomethionine-labeled, purified …
Regarding B1, the binding entry is “binds”.

Values taken from PMC3765158, “Structure Determination and Biochemical Characterization of a Putative HNH Endonuclease from Geobacter metallireducens GS-15” (PLoS ONE, 2013).
